Holding throughout (assay): EMSA
Data set [1] concerns T1, 6His-SUMO-RegA (Acidithiobacillus ferrooxidans ATCC 23270T).
T1 sequence (looked up): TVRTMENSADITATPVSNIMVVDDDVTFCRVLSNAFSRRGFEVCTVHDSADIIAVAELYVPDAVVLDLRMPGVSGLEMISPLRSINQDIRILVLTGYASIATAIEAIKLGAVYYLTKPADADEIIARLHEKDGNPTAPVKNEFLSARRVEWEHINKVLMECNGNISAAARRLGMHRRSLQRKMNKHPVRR
As to conditions: EMSA: 40 mM Tris-HCl pH 8, 100 mM KCl, 0.5 mM DTT, 0.05% NP40, 2 mM spermidine, 0.2 mM EDTA, 8% glycerol, 15 ng/ul herring sperm DNA, 30 min room temperature, recombinant protein, residues 1-190, protein details: N-terminal 6His-SUMO, probe letters rebuilt from the primers and the genome. For orientation: A gel shift assay detects complexes by their altered migration in electrophoresis.

Data set [2] concerns T2, RegA-HTH-6His (Acidithiobacillus ferrooxidans ATCC 23270T).
T2 sequence (looked up): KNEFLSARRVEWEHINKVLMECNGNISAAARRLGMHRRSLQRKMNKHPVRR
As to conditions: EMSA: 40 mM Tris-HCl pH 8, 100 mM KCl, 0.5 mM DTT, 0.05% NP40, 2 mM spermidine, 0.2 mM EDTA, 8% glycerol, 15 ng/ul herring sperm DNA, 30 min room temperature; recombinant protein; residues 140-190; protein details: C-terminal 6His (pET21); label: 5' Cy5 reverse primer; probe letters rebuilt from the primers and the genome.

The subject of data set [3] is T3, 6His-SUMO-RegA_D68A D67A (Acidithiobacillus ferrooxidans ATCC 23270T).
T3 sequence (looked up): T1 sequence (looked up) with D67A
As to conditions: same threshold as wild type; EMSA: 40 mM Tris-HCl pH 8, 100 mM KCl, 0.5 mM DTT, 0.05% NP40, 2 mM spermidine, 0.2 mM EDTA, 8% glycerol, 15 ng/ul herring sperm DNA, 30 min room temperature; recombinant protein; residues 1-190; protein details: N-terminal 6His-SUMO; label: 5' Cy5 reverse primer; probe letters rebuilt from the primers and the genome.

The subject of data set [4] is T4, 6His-SUMO-RegA_A102S A101S (Acidithiobacillus ferrooxidans ATCC 23270T).
T4 sequence (looked up): T1 sequence (looked up) with A101S
As to conditions: same threshold as wild type; EMSA: 40 mM Tris-HCl pH 8, 100 mM KCl, 0.5 mM DTT, 0.05% NP40, 2 mM spermidine, 0.2 mM EDTA, 8% glycerol, 15 ng/ul herring sperm DNA, 30 min room temperature; recombinant protein; residues 1-190; protein details: N-terminal 6His-SUMO; label: 5' Cy5 reverse primer; probe letters rebuilt from the primers and the genome.

Numbering of substitutions follows the chain as printed. For some assays here: Negatives hold for the conditions tested. For some assays here: At least one verdict was read from the data and is not stated in words by the source. Protein sequences can lack the tags named with them.

With “AAAGAGTACCTCCAGTTCCCAGGGATCGACCCGCAGCGTCCCAAAGGGGTTATCCCGCGTGGCCGGACGCCAGAAGAGATTCGGCAACCATCCTTTGTTGCGCACTGCGGGGGCCAGATAAAACGCCCGACAACGTGCGGCTACCTCCGCTGGCGCGGGAATCGGGATCACATCCAGGTTTTCCATAATACCCCTTTCAAGTCGTTGCCGATGCGGGTCGCCACCCACGGCAACGATCATAAAGCCATTTGCTTGGCAACGGAATCATTGTGGAGCATAGTGGTCAACTATTCACATGGGGGGTACAGTTTGTTCCACGGTGTGTATTC (double strand) [hdrB 329 bp]”, in data set [1] (label: 5' Cy5 reverse primer), the binding result was “binds”.

With “AATCCGTACATGTGCCACTCGCTTGCATGAAAGAAAATTGACCGGGGATTCTACATGAAACGCCCGGCAGGCTAACCCCCAAGCCGCATCATGAACACTCTGGCGGAACGGTTGGGGTCATTTACAAAGTGATGGTGCTCCGGCTTGTCCCGCCAGATCCCTTGGGTAATGGCCTCCGCGATCTGTCCGTCACTGGCTGCTCCGCGTATGAGAGGCAAAAGTTCCAACCCCCCATCCTGCCCCAGACAATACACCAGACGCCCCGTTGCAGTGAGGCGTACACGGTTGCAGGTTGCGCAAAAATCGTCGCTGATGGGCGTAATGAAG (double strand) [hdr 327 bp]”, the binding result in data set [1] (label: 5' Cy5 reverse primer) and in data set [2] was “binds” each time.

In the case of “ATATTTCTCCCTGACGGACTTCAGACCATCCGCGATATGACAGGATAGCGATCACTATCCGATTACCTTCCCCGACACTGCATGCAGATCAGGATTTCTATGGGCTTCCACCGCACAGCGGCCGCCGAACCACGGCGTCCGGGCTGCCGGCGATTCTGCAGCAGGCCGGCATTGGCACCAGTTTTCACCACTTCCGTAAATCATATAAATTTATACTATTACTGCCTATTGATTACCTGGCAGTAAAACTAGTGCAGGCGGGGGCGCAAAGCAATAGGGATTTGCCTCAAATATTTTTGGGCTTATGTAAATAGTATTAGTGATGTGCGTGCGCCCAAAAGATAAATCATAATATTACCTTTATCTTATTAAGACGCATCTGAAAACCATCTGTG (double strand) [cyo 395 bp]”, the binding result in data set [1] (label: 5' Cy5 reverse primer) and in data set [2] was “binds” in each case.

Turning to “CAAATGAGATCGAAATACGCGCTCGTTGGCCCTTTTGGGACAACTTCACGGCCGACCTGTGCCGTTTGGCCCTTCCCCACTCCTTCCAGATAACCCACGTTGTAAGAATAACAAAATAAAACAGCATCCTGTAATCATTATGCGGCTGGCACAATACATGCATAAAACATCTCGTGCTGCCGCGGGATTCTCATTTTCATTTACTCATTGAATATCATAAGCGGGATGCAGCCATAAATATAACGCTGGTTGTGTTATTGGGAGCGAGCATTTAATTCTGTTGATATCGTTTATGGGAATAACAAAAGTGGAGACGCAGCTGAAAAAGCGAAGCTGATGACAGAGTACGTTATACCTCACCAAATGGATTGGAGACTTGATATGCC (double strand) [tet 386 bp]”, the binding result in data set [1] (label: 5' Cy5 reverse primer), in data set [2], in data set [3] and in data set [4] was “binds” each time.

“CCCCAGTCATGAAGCCTACCGTGGTAATCGCCCCCCTTGCGGTTAAGCTAACTACTTCTGGTAAACCCCACTTCCATGGTGTGACGGGCGGTGTG (double strand) [rrs 16S 95 bp]”: in data set [1] (label: 5' Cy5 forward primer), the binding result is reported as “no binding”.

In the case of “CGATGAGAACAGTGGATGATAACGCGGAGCCAAATAGCCGCAGCACAGCTAATAGACATGCATTATGTACATATAAGGATGATGAATGAATAAGTTTTATTATGATCCTGTCGTTGTCTGGATATGAATAAGTGACGTAATTTCAGTCGTTAACGCGAGATTTATGGTTTTTTCCGCTGGTCACATCGATAACGTGTCATAGATCAAAGGCCAACTATCTCATTAAATATAAAAATTACTTATAGAATTGGCAAAAATCGTAATTTTCAATTGACTGCAAAGTGTTTTATGTTTCGAGGCCGCTACAACAGATGGGTAATCAATGCATGGCTAGGTTTTTATCAGCAGTTCCTAATGGTGATTTGC (double strand) [doxII 366 bp]”, in data set [1] (label: 5' Cy5 reverse primer), the binding result is “binds”.

As for “GCCTGTTTGTAGATATTGTTCTGGCCCCTACGGGTAATCCGCATATCTGTTCCTCATCAAAGCAACGGCCTGTACCTCGACCAAGACGCTTCCCAGGTTTCCCAGATATCGGTTCGACCAATTCGCCATCTTCACGTTATCACGCATATGAATTCCCCCGTACGTTGCCAGACGTCGACTGTTTTACTCGTGATGGCAGGAATCGTTACTAAAGGCCCTCAGATTCCATCTGGAGCTTGGATATACCTATCCCGTCACGCTGCTCCCAAGTTCGAACTTCGACCGGCACGCACCATCCGATGCTTGGATTGGGTCAGGTATGTCGGATAACCGACGGTGTAATCACGGCAACCTCGCCAGAGAACACCGCACCGGAAAGCTTACTTTCTGATCGCCATGTTTGTAACTAATAATATTATATTGTTCGCATGTATTGTTGTTCCGTGTTTTTAACGGCCGCTGAATTTGATGTCCCGCTCTACGACCTGGACAGATTTGTAACTGTGTGATAACACCTGATATGATGAGGTTTCATATAGCTGGGTTAGTTCGTTCCCCTGTGGAGC (double strand) [reg 566 bp]”, the binding result in data set [1] (label: 5' Cy5 reverse primer) and in data set [2] was “binds” in each case.

For “GGCATATCAAGTCTCCAATCCATTTGGTGAGGTATAACGTACTCTGTCATCAGCTTCGCTTTTTCAGCTGCGTCTCCACTTTTGTTATTCCCATAAACGATATCAACAGAATTAAATGCTCGCTCCCAATAACACAACCAGCGTTATATTTATGGCTGCATCCCGCTTATGATATTCAATGAGTAAATGAAAATGAGAATCCCGCGGCAGCACGAGATGTTTTATGCATGTATTGTGCCAGCCGCATAATGATTACAGGATGCTGTTTTATTTTGTTATTCTTACAACGTGGGTTATCTGGAAGGAGTGGGG (double strand) [tet 312 bp]”, the binding result in data set [1] (label: 5' Cy5 reverse primer) was “binds”.

Regarding “GTAGCCCCGCCCGATACCCCATGATGAATATTGCGCCGCATATTTAACACCTTAAATGAAGAAACGTCAGGTTATCTGCGTTTGGGAGTTTATCTGGATTAATTAATATATGTACCGTGGCGATCCTGTTTTCGTGGTCTATAGTTCAATAAACTTAACCAATCATCATACGCTGCATGCAAGTATACTCATAACATCATATAACGCATACCGCAAGACATGAATTCGTATTTTATAATAAACACCAATGGCCAGGGCAAGATAACCATCCGCCCTGGCCACCGGGATCTACACTAACAAAGCGTCGTTACCCGAACAACAACCATCCGCGAATTACTTGACAACGATCTTACCGAACATACCGGTGGCGGCATGCCCCGGTATCTGACATACGTAGTAGTAAGTGCCCGCCGTCGGATGCCAGGTAAAATCCGTATATCCGAACTTGCCATCTTTTGGGACCGGACTGAATCCTGTTCCTGCAACAATGGGGTCGATCACCGGCATAACCGCATAAGGAGGTCCTTTTTTGGTGATGTCAAAACTATGACCGAATCCCTTGTTGGT (double strand) [cta 568 bp]”, the binding result in data set [1] (label: 5' Cy5 reverse primer) and in data set [2] was “binds” throughout.

Regarding “GTCAGCGTGCAGATCATGCAGCAGCTTCAGGAGCGGGGCTGGATCACCACCAGCGGACACCGGGATACACCGGGTCGCCCCGCGCTTTGGGTGACAACACCCGGTTTTCTGGAGCATTTTTCATTGCCGTCGCTGGCTGCGTTGCCGGAGATCGTGACGATGGAAGAGGGCCAGACGGATATACAGGCAGGCATAACGGACTGAAACCTTATTAAAAATATATTTGGAAAGTTGCAACAATCTAATTTGACGAATTGGGAAGGTTCTATAATATTCCGACTAGAAATCCAATTGGGCTCGGTAAGCGAAATCCGATGTTGTGGCTTACCTTGAATCTGGCGCGGTAAAGTACGAGAGGAGCA (double strand) [sqr 362 bp]”, the binding result in data set [1] (label: 5' Cy5 reverse primer), in data set [2], in data set [3] and in data set [4] was “binds” each time.
